Holding throughout (assay): affinity purification with mass spectrometry; eYFP-tagged bait captured from lysate of cryogenically ground T. brucei procyclic cells (100 mM KCl, 1 mM MgCl2, 50 mM Hepes pH 7.2, 5% glycerol; no detergent, no RNase added) on llama anti-GFP nanobody (LaG-16-G4S-LaG-2) Dynabeads; biological triplicates; enrichment against the eYFP-DRBD4 control, or pairwise between the two eIF4E and the two eIF4G baits

Amino acid sequences for entries named in this document (tags omitted). A change or cut given only in a name is not applied to a line headed by its entry.
UniProt Q585M4: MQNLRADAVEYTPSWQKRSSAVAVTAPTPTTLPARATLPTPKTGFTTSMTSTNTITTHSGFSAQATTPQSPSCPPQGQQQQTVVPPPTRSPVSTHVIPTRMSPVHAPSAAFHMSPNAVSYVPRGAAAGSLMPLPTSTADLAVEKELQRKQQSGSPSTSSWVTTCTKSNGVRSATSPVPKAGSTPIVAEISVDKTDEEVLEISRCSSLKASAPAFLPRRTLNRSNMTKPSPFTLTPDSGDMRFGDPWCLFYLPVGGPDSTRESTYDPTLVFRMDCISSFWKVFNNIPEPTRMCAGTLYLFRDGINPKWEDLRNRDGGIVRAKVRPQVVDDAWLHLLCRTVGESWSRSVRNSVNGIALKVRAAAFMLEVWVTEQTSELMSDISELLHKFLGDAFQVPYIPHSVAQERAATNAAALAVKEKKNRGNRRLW
UniProt Q57VT0: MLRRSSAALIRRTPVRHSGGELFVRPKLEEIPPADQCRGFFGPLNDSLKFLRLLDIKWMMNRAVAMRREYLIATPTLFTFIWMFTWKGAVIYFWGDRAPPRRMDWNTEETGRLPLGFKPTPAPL
UniProt Q382K8: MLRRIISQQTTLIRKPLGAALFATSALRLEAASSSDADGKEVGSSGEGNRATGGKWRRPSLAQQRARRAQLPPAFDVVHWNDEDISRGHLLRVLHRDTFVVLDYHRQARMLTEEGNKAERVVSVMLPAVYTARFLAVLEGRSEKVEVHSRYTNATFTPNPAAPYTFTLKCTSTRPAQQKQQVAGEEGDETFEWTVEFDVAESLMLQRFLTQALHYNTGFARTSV
UniProt Q38BZ2: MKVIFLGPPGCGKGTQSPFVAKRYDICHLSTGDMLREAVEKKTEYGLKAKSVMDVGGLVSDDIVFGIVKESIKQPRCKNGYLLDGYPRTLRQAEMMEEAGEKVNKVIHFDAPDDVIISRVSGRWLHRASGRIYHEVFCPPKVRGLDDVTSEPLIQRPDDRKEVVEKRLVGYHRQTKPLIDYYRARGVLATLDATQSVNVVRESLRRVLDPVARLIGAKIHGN
UniProt Q38C20: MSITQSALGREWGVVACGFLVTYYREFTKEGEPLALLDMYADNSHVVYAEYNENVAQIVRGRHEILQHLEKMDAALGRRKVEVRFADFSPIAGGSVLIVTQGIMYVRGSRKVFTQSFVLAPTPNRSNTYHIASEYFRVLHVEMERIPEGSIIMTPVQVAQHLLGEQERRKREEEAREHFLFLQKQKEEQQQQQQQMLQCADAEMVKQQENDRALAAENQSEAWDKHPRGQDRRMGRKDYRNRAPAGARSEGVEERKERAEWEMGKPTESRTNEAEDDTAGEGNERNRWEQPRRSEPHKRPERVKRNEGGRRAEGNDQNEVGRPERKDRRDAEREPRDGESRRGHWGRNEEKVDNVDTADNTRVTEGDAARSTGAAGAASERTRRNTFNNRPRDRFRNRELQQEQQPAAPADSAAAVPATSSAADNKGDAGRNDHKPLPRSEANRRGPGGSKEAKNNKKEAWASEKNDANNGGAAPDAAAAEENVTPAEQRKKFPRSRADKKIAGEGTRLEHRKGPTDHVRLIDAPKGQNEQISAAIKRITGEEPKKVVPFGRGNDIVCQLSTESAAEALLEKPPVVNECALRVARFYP
UniProt Q57XJ5: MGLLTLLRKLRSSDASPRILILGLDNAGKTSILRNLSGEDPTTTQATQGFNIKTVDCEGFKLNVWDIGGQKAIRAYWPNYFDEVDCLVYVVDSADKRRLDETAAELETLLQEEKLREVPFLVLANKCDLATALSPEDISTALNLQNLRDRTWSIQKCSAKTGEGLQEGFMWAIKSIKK
UniProt Q381R2: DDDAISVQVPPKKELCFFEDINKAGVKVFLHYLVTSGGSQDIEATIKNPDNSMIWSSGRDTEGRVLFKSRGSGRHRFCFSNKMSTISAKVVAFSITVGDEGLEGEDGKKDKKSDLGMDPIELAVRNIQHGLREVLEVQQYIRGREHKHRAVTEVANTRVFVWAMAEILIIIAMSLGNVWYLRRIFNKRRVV
UniProt Q38F38: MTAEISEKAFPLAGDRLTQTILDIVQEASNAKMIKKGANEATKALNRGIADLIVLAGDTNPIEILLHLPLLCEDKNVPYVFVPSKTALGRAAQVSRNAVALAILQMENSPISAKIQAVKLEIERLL
UniProt Q38B27: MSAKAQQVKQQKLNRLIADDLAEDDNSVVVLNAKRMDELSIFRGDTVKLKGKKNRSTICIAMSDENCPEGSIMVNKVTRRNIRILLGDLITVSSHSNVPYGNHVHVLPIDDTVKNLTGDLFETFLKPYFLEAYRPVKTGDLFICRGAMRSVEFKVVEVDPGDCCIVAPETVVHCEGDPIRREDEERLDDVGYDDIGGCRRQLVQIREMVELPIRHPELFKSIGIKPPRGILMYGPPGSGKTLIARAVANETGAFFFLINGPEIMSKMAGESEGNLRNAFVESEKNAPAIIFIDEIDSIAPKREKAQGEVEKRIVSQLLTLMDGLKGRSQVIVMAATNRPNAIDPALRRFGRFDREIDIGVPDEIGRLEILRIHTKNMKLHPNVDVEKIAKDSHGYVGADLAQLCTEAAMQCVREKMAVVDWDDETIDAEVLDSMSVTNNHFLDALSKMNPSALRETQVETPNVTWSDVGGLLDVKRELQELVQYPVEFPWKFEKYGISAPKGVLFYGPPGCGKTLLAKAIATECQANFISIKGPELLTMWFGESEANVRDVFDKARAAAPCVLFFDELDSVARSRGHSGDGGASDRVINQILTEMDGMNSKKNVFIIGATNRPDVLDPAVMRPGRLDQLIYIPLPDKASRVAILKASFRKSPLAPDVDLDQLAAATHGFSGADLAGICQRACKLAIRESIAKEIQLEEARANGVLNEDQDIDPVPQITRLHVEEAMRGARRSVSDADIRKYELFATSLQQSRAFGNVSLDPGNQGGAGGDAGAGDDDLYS
UniProt Q57Y81: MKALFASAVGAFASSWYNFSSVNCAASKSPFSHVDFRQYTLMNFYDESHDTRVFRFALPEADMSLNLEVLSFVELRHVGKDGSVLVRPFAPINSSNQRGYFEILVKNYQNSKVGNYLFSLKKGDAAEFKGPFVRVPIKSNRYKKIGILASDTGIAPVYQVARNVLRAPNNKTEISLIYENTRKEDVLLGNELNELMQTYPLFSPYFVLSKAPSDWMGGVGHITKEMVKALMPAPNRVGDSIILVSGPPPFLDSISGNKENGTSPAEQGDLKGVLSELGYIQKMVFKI
UniProt Q586I4: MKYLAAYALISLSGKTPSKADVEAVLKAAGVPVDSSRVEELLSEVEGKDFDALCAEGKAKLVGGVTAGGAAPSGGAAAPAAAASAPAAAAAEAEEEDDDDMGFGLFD
UniProt Q57X68: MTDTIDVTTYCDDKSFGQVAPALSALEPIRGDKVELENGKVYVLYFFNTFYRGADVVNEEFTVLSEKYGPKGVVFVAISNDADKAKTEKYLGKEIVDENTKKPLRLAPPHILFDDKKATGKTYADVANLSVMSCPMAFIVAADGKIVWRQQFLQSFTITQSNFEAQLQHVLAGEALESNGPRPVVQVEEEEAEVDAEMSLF
UniProt Q385T6: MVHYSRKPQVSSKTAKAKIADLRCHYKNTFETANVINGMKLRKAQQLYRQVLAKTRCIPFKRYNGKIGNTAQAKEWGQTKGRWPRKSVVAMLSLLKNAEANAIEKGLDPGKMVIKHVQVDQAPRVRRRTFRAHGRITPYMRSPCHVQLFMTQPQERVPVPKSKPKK
UniProt Q38C25: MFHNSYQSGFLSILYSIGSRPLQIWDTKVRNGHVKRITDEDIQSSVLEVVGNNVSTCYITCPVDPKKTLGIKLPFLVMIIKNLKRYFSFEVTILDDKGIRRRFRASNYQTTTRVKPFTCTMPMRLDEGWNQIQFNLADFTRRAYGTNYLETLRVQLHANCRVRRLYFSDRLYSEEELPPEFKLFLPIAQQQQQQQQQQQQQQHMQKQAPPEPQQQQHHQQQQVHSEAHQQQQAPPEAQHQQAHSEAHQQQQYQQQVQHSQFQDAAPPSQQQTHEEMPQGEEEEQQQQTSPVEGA
UniProt Q38CD0: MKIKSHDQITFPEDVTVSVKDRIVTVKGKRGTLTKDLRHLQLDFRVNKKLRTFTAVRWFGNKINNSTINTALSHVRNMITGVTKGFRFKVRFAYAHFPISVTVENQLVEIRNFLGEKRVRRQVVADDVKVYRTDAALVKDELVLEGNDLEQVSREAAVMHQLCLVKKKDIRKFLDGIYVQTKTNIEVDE
UniProt Q382H2: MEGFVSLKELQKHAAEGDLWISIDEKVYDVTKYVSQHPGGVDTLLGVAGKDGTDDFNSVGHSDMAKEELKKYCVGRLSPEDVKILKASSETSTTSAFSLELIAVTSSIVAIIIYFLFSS
UniProt Q38B28: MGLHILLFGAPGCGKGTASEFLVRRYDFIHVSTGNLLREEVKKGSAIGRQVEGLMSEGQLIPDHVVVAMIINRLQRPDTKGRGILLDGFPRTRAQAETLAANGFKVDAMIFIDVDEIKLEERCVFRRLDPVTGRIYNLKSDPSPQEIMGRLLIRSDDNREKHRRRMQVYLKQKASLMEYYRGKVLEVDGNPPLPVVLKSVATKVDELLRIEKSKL
UniProt Q57X64: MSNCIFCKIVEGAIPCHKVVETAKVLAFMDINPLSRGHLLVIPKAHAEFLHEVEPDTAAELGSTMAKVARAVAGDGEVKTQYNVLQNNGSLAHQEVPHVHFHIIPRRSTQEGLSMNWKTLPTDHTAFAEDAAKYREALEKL
UniProt Q383A4: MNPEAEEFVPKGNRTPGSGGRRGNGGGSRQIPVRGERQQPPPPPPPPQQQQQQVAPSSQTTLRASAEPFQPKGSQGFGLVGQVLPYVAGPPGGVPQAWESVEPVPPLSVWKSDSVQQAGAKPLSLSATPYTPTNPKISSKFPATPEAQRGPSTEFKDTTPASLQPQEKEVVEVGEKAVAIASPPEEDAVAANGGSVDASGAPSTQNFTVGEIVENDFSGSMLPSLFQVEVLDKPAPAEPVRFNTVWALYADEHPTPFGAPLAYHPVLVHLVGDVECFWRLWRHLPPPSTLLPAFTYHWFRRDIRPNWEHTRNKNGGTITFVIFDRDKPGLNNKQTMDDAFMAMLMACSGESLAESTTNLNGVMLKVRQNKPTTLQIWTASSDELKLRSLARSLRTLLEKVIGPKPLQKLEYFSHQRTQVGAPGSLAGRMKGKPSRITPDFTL
UniProt Q57ZR2: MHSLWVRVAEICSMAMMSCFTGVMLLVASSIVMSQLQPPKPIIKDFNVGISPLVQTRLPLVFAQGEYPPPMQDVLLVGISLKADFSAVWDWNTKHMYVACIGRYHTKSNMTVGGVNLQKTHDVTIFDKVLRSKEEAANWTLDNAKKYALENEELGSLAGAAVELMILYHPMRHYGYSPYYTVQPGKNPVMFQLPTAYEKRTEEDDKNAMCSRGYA
UniProt Q586Q9: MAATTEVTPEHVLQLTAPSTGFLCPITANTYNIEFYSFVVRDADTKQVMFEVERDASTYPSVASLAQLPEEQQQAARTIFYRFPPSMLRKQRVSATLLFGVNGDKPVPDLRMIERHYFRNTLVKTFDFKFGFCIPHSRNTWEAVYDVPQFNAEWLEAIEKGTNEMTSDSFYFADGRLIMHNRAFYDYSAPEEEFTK
UniProt Q57WS0: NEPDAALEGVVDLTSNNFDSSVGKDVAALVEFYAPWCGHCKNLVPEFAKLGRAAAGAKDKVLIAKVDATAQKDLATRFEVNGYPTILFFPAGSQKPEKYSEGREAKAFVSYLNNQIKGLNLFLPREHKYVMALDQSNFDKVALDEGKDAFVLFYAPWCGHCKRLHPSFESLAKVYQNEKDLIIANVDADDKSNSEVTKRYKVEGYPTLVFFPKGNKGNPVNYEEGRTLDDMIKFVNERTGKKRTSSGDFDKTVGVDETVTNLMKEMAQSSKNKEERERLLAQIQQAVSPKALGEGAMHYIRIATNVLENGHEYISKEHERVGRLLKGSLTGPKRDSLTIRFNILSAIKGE
UniProt Q38EY6: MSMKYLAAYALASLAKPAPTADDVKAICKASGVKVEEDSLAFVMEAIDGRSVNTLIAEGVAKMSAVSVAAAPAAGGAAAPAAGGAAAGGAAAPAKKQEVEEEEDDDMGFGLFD
UniProt Q580H2: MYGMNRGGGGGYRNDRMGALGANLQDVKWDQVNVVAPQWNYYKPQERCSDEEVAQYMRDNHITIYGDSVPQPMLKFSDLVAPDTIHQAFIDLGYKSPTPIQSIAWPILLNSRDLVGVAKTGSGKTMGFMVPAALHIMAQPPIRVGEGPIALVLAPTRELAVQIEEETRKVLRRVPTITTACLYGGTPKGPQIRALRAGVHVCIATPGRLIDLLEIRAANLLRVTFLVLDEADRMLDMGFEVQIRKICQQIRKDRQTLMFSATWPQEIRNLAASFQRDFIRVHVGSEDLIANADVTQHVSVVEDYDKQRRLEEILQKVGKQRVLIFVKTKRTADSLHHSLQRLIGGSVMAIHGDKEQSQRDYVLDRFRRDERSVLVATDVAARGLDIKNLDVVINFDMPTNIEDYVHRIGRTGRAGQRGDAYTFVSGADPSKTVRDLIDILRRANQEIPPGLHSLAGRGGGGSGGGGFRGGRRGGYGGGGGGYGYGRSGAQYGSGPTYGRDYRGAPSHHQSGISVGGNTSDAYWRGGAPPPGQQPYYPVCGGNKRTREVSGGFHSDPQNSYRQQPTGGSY

Experiment [1] concerns the target Eukaryotic translation initiation factor 4E-4 (Trypanosoma brucei (endogenous in procyclic Lister 427 cells)) (UniProt Q585M4).
The target of experiment [2] is Eukaryotic translation initiation factor 4 gamma 3 (Trypanosoma brucei (endogenous in procyclic Lister 427 cells)) (UniProt Q57UX0).
The target of experiment [3] is Eukaryotic translation initiation factor 4G type 4 (Trypanosoma brucei (endogenous in procyclic Lister 427 cells)) (UniProt Q383M3).
Experiment [4] addresses Eukaryotic translation initiation factor 4 gamma 3 (Trypanosoma brucei (endogenous in procyclic Lister 427 cells)) (UniProt Q57UX0). This is another data set of the same source.

Like-named read-outs stand apart in the source and are kept apart here. No constants are given. Whether binding was seen depends on the method and setting. Binding seen in cells or lysates may run through a third protein. Here binding means that the protein was enriched with, or labelled near, the bait; the list need not be complete. For some of these results: No binding means not detected with the bait.

Consider “Intraflagellar transport protein 27 (from UniProt Q580S0)”, for which, in experiment [1], the binding result is reported as “binds”.
Take “Mitochondrial ATP synthase subunit (from UniProt Q57VT0)”: the binding result in experiment [2], in experiment [1] and in experiment [3] was “binds” throughout.
As for “Guide RNA binding protein 25 (from UniProt Q382K8)”, the binding entry in experiment [1] was “binds”.
For “Adenylate kinase (Tb927.10.2530) (from UniProt Q38BZ2) (enzyme)”, in experiment [3], the binding result is recorded as “binds”.
On to “Nuclear transport factor 2 (NTF2) domain protein (from UniProt Q38C20)”, for which the binding entry in experiment [3] was “binds”.
In the case of “ADP-ribosylation factor-like protein 3A (from UniProt Q57XJ5)”, the binding entry in experiment [1] and in experiment [3] was “binds” in each case.
On to “Emp24-related protein 1 (from UniProt Q381R2)”, for which the binding result in experiment [2] and in experiment [1] was “binds” throughout.
In the case of “Threonine synthase (from UniProt Q57X55) (enzyme)”, the binding entry in experiment [3] is “binds”.
Take “40S ribosomal protein S6 (from UniProt Q38F38)”: the binding entry in experiment [3] is on record as “binds”.
For “Valosin-containing protein, CDC48 (from UniProt Q38B27)”, the binding entry in experiment [1] was “binds”.
Take “NADH-cytochrome b5 reductase (from UniProt Q57Y81) (enzyme)”: in experiment [2], the binding entry is “binds”.
In the case of “60S acidic ribosomal protein P2 (Tb927.6.5120) (from UniProt Q586I4)”, the binding result in experiment [1] is given as “binds”.
As for Thioredoxin-like (from UniProt Q57X68), the binding entry in experiment [2], in experiment [1] and in experiment [3] was “binds” in each case.
Consider “60S ribosomal protein L17 (from UniProt Q385T6)”, for which, in experiment [1], the binding entry is “binds”.
As to DUFF667 (from UniProt Q38C25), the binding result in experiment [2] is given as “binds”.
As for “60S ribosomal protein L9 (from UniProt Q38CD0)”, the binding entry in experiment [1] is reported as “binds”.
Regarding Cytochrome b5 (from UniProt Q382H2), in experiment [2], the binding result is on record as “binds”.
Still for that read-out and setting: the value for “Adenylate kinase (Tb927.10.5760) (from UniProt Q38B28) (enzyme)” was “binds”; that for “Adenosine 5-monophosphoramidase (from UniProt Q57X64) (enzyme)” was “binds”.
Take “ATP synthase F1 subunit p18, mitochondrial (from UniProt Q57ZP0)”: the binding entry in experiment [2] is listed as “binds”.
As for “Ribose 5-phosphate isomerase (from UniProt Q384D1) (enzyme)”, the binding entry in experiment [2], in experiment [1] and in experiment [3] was “binds” throughout.
With “Eukaryotic translation initiation factor 4E-3 (from UniProt Q383A4)”, the binding entry in experiment [1] is “no binding”; in experiment [3], “binds”.
As for “Signal peptidase subunit (from UniProt Q57ZR2)”, the binding entry in experiment [2] is listed as “binds”.
Regarding “Asparagine synthetase a (from UniProt Q57WT9) (enzyme)”, the binding entry in experiment [1] is “binds”.
For the molecule UNC119 (from UniProt Q586Q9), the binding entry in experiment [2] is reported as “binds”.
Take “Protein disulfide isomerase (from UniProt Q57WS0) (enzyme)”: the binding result in experiment [2] was “binds”.
On to “60S acidic ribosomal protein P2 (Tb927.9.5690) (from UniProt Q38EY6)”, for which, in experiment [3], the binding result is “binds”.
Consider “RNA-binding protein 17 (from UniProt Q587B9)”, for which the binding result in experiment [2] and in experiment [3] was “binds” throughout.
Turning to “DEAD-Box helicase DBP2B (from UniProt Q580H2)”, the binding result in experiment [3] is given as “binds”.

B1: Transaldolase (enzyme, UniProt Q57X22 1-332)
chain: MNQLESLKKHTCVVIDTADFSLLKEFSAEDATTNPSLVLAGSQVPQHAHLVNSAVEFARSNVSRLRDGLLSSADDERAQLLELAVDKLTVSFGVEILKAIPGRVSSEVDARLSYDADKMVKKAQHIVQLYAEAGVPKERLYIKLASTWEGIRAAERLEREGINCNLTLLFSFDQAVACAQAGVALISPFVGRVLDWYKAKYPEQADTFIGAQDPGVIAVTKIYNYYKRHGYKTVVMGASFRNTGEVLELAGCDKLTISPKLLQELASTPGEVVRKLDPARLTQSIPKLSELTRPESLFERETNNMAVEKLEEGIRNFAKDTEKLEALIATLL
For the molecule B1, in experiment [4], the binding entry is “binds”.

B2: Acyl carrier protein (protein, UniProt Q57WW9 1-148)
chain: MQRSQLARKFATQVGAYSLLRGRCHAVSTWKVMATQAVTIPMYLPVRFHSEGHAAGEEAGRTGQYLLNKDDVLTRVLEVVKNFEKVDASKVTPQSHFVNDLGLNSLDVVEVVFAIEQEFILDIPDHDAEKIQSITDAVEYISQNPMAK
For B2, the binding entry in experiment [4] is on record as “binds”.

B3: Aspartyl aminopeptidase (enzyme, UniProt Q57V45 1-451)
chain: MLPLDSPPVTQLAKEFVNFINEACTPFHAVEVLSSWLSNAGYQRLKEGETWPKLTNGYRYFITRNDSSLVAFSVGGRFVAENGLKIVGAHTDSPNLALKPRTLAGRSDYQGVAVQCYGGGLWHTWFDRDLTVAGRVIISSSKLVKRLVKVNKPIMRIPTLAIHLQSVEERNAFGPNKEKHLVPVIATTLSHTPNGDVSEHHNSQLLILLAESLGCRPSEIVDYDLSVVDTQDAVVGGANDEFIYAPRLDNLISCFCGVKALLESDKTLEEENMIRMVCLFDNEEVGSSTSQGAGGSLVPDVIEYISASGGLRAQLVANSFLMSVDGAHAVHPNYQDKHEEKHRPLIHRGPVIKYNANMRYATNGVTAAIVKAIAKRASVPIQEFCVKNDSPCGSTIGPILSSLSGIQTVDLGNPMLSMHSIREMCGTADLLHLKNLLEAFFNHYTRDMVTS
For B3, the binding result in experiment [4] is listed as “binds”.

B4: Proteasome subunit alpha type 1 (protein, UniProt Q38B02 1-266)
chain: MFKNQYDTDTTTWSPTGRLFQVEYANEAVNNGSAAVGVKGADYVVLTALKRNPVSGLSSYQEKAFKLDEHVGMAISGLVADGRALSRFLRTECMNYRYMHDSDAPLVMLADMVGAKHQRHIQFAGKRPFGVGLLIAGYDRQGPRLYQTVPSGDVFDFKATAMGLRSQAARTYLERHFRGFPACDLDELVMHALRALGAATSGGVELNIKNTTIAIVGKGTPFTILTEEEARKYLDGFKTRPEDIPAVADNEEDDDELHEQPPDVEE
In the case of B4, in experiment [4], the binding entry is reported as “binds”.

B5: Eukaryotic translation initiation factor 3 subunit E (protein, UniProt Q383C1 1-413)
chain: MTEMLSCLVPYLDKHLVLGLLYFYDDQGVDVGDALRFVQATTALTPEGEVSLEQENKIRETAERARPALDMFFEQNVSDNCTYQLCLTESRIDELRGKGELSRGFLEKEGITPKVMTAVMDLAFLYYDAARYGDASELLSLLQCVTGYELGESKLLWGRLVCDTCSCRWPSAIAAAEKLWKQQGADGSENKSGKTTLRGDNGTSVTERVWLLHWALFPFFKGGNQYSTHLLNIVFDNKTDSIYQCVVETVCPHYLRYICAAAILNTHRRSALRRAAEMVGRIYEYSDPLTQLVREITNYRSFEDTLELLPKVSELAQGDYFLNLHADNLVENAKRLIFTQYVVTHSVVSIPYMAERLEMSAAGAEVWLADLISETKQRAKIDAVTGQMFVGSQVRSVHQTVLDRLEPVDHGRR
On to B5, for which, in experiment [4], the binding entry is on record as “binds”.

B6: Sterol 24-c-methyltransferase (enzyme, UniProt Q4FKJ2 1-359)
chain: MSAGSRGPLSLLIARERDANGVNGDVNATAGRLRDRYDGKGASASERRQDATSLTNEYYDIVTDFYEYGWGQNFHFAPRYMNETFYESLARYEYFLAYHAQFKPTDTVLDVGCGIGGPARNMVRFTSCNVMGVNNNEYQINRARQHDSRYGMSGKINYTKTDFCNMCFGDNEFDGAYAIEATCHSESKVKCYSEVFRAIKPGAYFMLYEWCLTDLYDPANEEHQRVRHGIELGDGLPELDTMRQVVAAVKAAGFVVEESFDMAERFESGEPKSVPWYEPLQGSYTSLSGLRATPAGRWLTSVTCRLLEAVRLAPAGTCKATEILEEGAVNLVKGGELGIFTPSFFVKARKPRLGEELSC
On to B6, for which the binding entry in experiment [4] was “binds”.

B7: Peptidyl-prolyl cis-trans isomerase PIN1 (enzyme, UniProt Q57YG1 1-115)
chain: MSEKLRAAHLLVKFSGSRNPVSRRTGDSTADVTYEDAIKELQKWSQRIASGEVSFEEAASQRSDCGSYASGGDLGFFSSGEMMKPFEDAVRALKIGDISPIVQTDSGLHIIKRLA
For the molecule B7, the binding result in experiment [4] is “binds”.
